Test results from paper doi:10.1101/2025.11.03.686288.
Results are given in words; binding and its absence hold for the method and conditions named. Tags and fused reporters may be left off the sequences shown.

Target: T1, S. cerevisiae Sgt2, GAL4 fusion (S. cerevisiae) (UniProt Q12118)
T1 sequence: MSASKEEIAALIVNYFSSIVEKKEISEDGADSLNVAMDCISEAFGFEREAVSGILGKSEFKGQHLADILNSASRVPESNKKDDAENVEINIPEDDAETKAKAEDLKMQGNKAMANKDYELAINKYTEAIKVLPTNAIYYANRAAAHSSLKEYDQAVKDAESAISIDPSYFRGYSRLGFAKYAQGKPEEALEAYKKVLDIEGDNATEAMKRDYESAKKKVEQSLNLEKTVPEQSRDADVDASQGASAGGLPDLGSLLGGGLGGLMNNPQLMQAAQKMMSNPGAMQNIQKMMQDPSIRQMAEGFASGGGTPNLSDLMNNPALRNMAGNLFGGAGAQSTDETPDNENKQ
Test: two-hybrid

GAL4-AD fusion of T. brucei PEX19 full length
binding: no binding

T. brucei PEX19 Δ30aa, GAL4 fusion (domain or fragment)
binding: no binding
